The target of assay [1] is BdPP2CA6 (pGBKT7-BdPP2CA6) (B. distachyon). Nature of the assay: two-hybrid; yeast AH109; pGBKT7 bait and pGADT7 prey; growth on SD/-Trp-Leu-His-Ade without exogenous ABA; dilutions 1, 1/10, 1/100.
For assay [2], the target named is BdPP2CA6-YNE (B. distachyon). Put plainly: split reporter; BiFC; YNE and YCE fusions co-transformed into onion epidermal cells by biolistic method; YFP fluorescence observed 1 day after transformation.

No constants are given. Whether binding was seen depends on the method and setting. Binding can be weak; no strength is given. For some assays here: In cells and extracts the contact can be indirect.

B1: AtSnRK2.3 (in pGADT7) (enzyme, UniProt Q39193 1-361)
chain: MDRAPVTTGPLDMPIMHDSDRYDFVKDIGSGNFGVARLMRDKLTKELVAVKYIERGDKIDENVQREIINHRSLRHPNIVRFKEVILTPTHLAIIMEYASGGELYERICNAGRFSEDEARFFFQQLLSGVSYCHSMQICHRDLKLENTLLDGSPAPRLKICDFGYSKSSVLHSQPKSTVGTPAYIAPEVLLRQEYDGKIADVWSCGVTLYVMLVGAYPFEDPEEPRDYRKTIQRILSVKYSIPDDIRISPECCHLISRIFVADPATRISIPEIKTHSWFLKNLPADLMNESNTGSQFQEPEQPMQSLDTIMQIISEATIPAVRNRCLDDFMTDNLDLDDDMDDFDSESEIDIDSSGEIVYAL
On to B1, for which, in assay [1], the binding result is “binds”.

B2: AtSnRK2.3-YCE (enzyme, UniProt Q39193 1-361)
chain: MDRAPVTTGPLDMPIMHDSDRYDFVKDIGSGNFGVARLMRDKLTKELVAVKYIERGDKIDENVQREIINHRSLRHPNIVRFKEVILTPTHLAIIMEYASGGELYERICNAGRFSEDEARFFFQQLLSGVSYCHSMQICHRDLKLENTLLDGSPAPRLKICDFGYSKSSVLHSQPKSTVGTPAYIAPEVLLRQEYDGKIADVWSCGVTLYVMLVGAYPFEDPEEPRDYRKTIQRILSVKYSIPDDIRISPECCHLISRIFVADPATRISIPEIKTHSWFLKNLPADLMNESNTGSQFQEPEQPMQSLDTIMQIISEATIPAVRNRCLDDFMTDNLDLDDDMDDFDSESEIDIDSSGEIVYAL
In the case of B2, in assay [2], the binding entry is recorded as “binds”.

These data come from publication PMC5329023.
